Measurements taken from PubChem BioAssay AID651768 (National Center for Advancing Translational Sciences (NCATS), 2012).
Screen size: about 360,000 compounds; about 1,700 (0.47%) were called active. Inconclusive results, whose numbers are uncertain, are shown with a selection of clear calls. Calls follow the shape of the dose curve; as a rule, active = well fitted inhibition curve with a large enough effect; inconclusive = small, poorly fitted or top-dose-only effect; inactive = no such curve, though single readings can be large or run the other way. A potency beside an inconclusive call is a rough fit, not a confirmed value.

Protein sequences, listed by entry. Tags and fused reporters are not part of them.
UniProt Q14191, whole entry, looked up: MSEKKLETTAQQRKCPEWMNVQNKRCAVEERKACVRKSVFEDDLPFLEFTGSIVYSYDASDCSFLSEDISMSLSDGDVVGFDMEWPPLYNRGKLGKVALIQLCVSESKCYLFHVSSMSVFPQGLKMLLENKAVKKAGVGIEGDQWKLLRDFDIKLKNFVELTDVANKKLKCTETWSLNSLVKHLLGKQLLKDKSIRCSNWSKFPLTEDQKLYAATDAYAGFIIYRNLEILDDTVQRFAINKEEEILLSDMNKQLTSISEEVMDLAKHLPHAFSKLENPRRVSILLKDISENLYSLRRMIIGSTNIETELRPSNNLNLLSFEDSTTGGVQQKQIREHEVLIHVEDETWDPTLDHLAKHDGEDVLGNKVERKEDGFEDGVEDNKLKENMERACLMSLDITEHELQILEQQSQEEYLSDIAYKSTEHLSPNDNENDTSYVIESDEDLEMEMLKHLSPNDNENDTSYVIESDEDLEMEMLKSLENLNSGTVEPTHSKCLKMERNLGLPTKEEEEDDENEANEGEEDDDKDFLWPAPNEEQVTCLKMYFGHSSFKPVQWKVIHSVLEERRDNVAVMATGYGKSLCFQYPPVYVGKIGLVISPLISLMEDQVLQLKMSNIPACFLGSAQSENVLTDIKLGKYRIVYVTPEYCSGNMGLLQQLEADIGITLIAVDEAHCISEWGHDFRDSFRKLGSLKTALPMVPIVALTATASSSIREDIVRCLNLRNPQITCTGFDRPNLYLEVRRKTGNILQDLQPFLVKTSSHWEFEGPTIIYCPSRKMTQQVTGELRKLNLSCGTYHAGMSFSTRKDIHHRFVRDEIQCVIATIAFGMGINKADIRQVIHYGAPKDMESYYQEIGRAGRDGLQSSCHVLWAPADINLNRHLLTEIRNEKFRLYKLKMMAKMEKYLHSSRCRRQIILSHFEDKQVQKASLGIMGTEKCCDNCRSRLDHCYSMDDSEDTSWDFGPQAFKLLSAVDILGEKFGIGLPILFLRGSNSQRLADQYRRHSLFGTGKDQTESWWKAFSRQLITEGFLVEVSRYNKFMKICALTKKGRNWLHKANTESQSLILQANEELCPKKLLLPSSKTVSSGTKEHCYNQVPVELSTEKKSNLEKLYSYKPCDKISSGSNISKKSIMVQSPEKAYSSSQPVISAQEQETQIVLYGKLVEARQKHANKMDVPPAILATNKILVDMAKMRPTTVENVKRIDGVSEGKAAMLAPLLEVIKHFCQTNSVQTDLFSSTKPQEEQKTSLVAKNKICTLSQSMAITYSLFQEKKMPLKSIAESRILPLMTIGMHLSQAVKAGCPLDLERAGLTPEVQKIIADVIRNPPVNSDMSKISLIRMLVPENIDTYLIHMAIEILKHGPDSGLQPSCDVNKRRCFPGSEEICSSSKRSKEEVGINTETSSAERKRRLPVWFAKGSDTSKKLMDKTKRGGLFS

Biological target: Bifunctional 3'-5' exonuclease/ATP-dependent helicase WRN (Homo sapiens) (UniProt Q14191)
Test: qHTS for Inhibitors of WRN Helicase; also: nearly all actives have a fitted effect of over 55% in size
Conditions: WRN helicase unwinding, fluorescent forked duplex, kinetic; activity change, negative = inhibition: at 114 µM (top of the series) unless noted
Method in brief: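 Primary qHTS, 1536-well format. 20 nM WRN + compound, 15 min RT; start with 100 nM forked fluorophore/quencher duplex, 2 mM ATP (final); kinetic read ex 525/em 598 nm.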
% is scaled to controls: 0 for no effect and ±100 for the full control effect; potency is read from the fitted curve at half-maximal effect.

Row | Compound | Potency | activity change, negative = inhibition
1 | COc1cc(C=Nc2cccc(C)c2)c(O)c([N+](=O)[O-])c1 | inconclusive: 39.8 µM [inhibitor, single point] | –
2 | CCOC(=O)c1[nH]c2c(c1C)C(=O)CC(c1ccco1)C2 (stereo unspecified) | inconclusive: 16.8 µM [inhibitor, partial curve] | –
3 | C[C@H](CO)N1C[C@H](C)[C@@H](CN(C)C(=O)NC2CCCCC2)Oc2ccc(NS(=O)(=O)c3ccc(F)cc3)cc2C1=O | inactive | –
4 | COc1ccccc1-c1nnc2n1N=C(c1ccc(O)c(O)c1)CS2 | active: 22.4 µM | –
5 | FC(F)(F)c1ccccc1CNCc1ccncc1 | inconclusive: 10 µM [inhibitor, full curve, poor fit] | –
6 | Cc1cc(C)c(S(=O)(=O)ON2C(=O)c3ccccc3C2=O)cc1C | active: 35.5 µM | –
7 | CN(c1ccc(OCC(=O)OCC(=O)Nc2ccc([N+](=O)[O-])cc2)cc1)S(=O)(=O)c1cccs1 | inconclusive: 17.8 µM [inhibitor, single point] | –
8 | COc1ccc(S(=O)(=O)NNC(=O)Cc2csc(C)n2)cc1[N+](=O)[O-] | – | inactive: 2.37% [at 11.6 µM]
9 | NS(=O)(=O)c1ccc(CNC(=O)CSc2nc3ccc(Cl)cc3[nH]2)cc1 | inactive | –
10 | O=C1/C(=C\c2ccc(Cl)cc2)CCC1CNc1ccc(Cl)cc1 (stereo unspecified) | inconclusive: 56.2 µM [inhibitor, partial curve] | –
11 | O=C(O)CN1C(=O)/C(=C\c2cc(Br)ccc2OCc2ccc(Cl)cc2)SC1=S | active: 56.2 µM | –
12 | Cc1ccccc1NC(=O)CN1C(=O)C2C3CC(C(Br)C3Br)C2C1=O (stereo unspecified) | inactive | –
13 | Cc1cccc(NS(=O)(=O)c2cccc(C(=O)N3CCN(c4ccccn4)CC3)c2)c1 | inconclusive: 89.1 µM [inhibitor, single point] | –
14 | COc1ccc2c(N)c(C(=O)NN)[nH]c2c1 | inconclusive: 6.31 µM [inhibitor, full curve, poor fit] | –
15 | O=S1(=O)C=C(Sc2nc3cc(Cl)ccc3o2)c2ccccc21 | inactive | –
16 | COC(=O)Cn1c(O)c(N=NC(=O)CNC(=O)COc2cccc(C)c2)c2ccccc21 | inactive | –
17 | CC1=C(C#N)c2nc(N)c(C#N)c(C)c2/C1=C\c1ccc(-c2ccccc2C(=O)O)o1 | active: 25.1 µM | –
18 | CCn1c2ccccc2c2nc3cc(C(=O)O)ccc3nc21 | inconclusive: 20 µM [inhibitor, single point] | –
19 | O=C(CSc1nc2ccccc2c(=O)n1-c1ccccc1)c1c[nH]c2ccccc12 | inconclusive: 39.8 µM [inhibitor, single point] | –
20 | Cn1c(N=Cc2ccc([N+](=O)[O-])cc2)c(N)c(=O)n(C)c1=O | inconclusive: 14.1 µM [inhibitor, partial curve] | –
21 | CCOC(=O)c1[nH]c(=O)[nH]c1COC(=O)c1cc2ccccc2o1 | inconclusive: 100 µM [inhibitor, partial curve, poor fit] | –
22 | OC1(c2ccc(F)cc2)CN(c2ccccc2)C2=[N+]1CCS2 (stereo unspecified) | inconclusive: 31.6 µM [inhibitor, single point] | –
23 | COc1ccc(-c2noc(-c3ccccc3C(=O)NCC3CCCO3)n2)cc1 (stereo unspecified) | inconclusive: 100 µM [inhibitor, single point] | –
24 | CC(C)/C=C1\CC/C(=C\c2ccc(N(C)C)cc2)C1=O | inactive | –

Row | Compound | Potency | activity change, negative = inhibition
25 | CCC(C)(C)c1nnc(NC(=O)C2CCN(C(=O)c3ccco3)CC2)s1 | inconclusive: 3.55 µM [inhibitor, full curve, poor fit] | –
26 | O=C1NC(=S)S/C1=C\c1cc(Cl)cc(Cl)c1O | active: 35.5 µM | –
27 | COC(=O)c1ccc(CSc2nc3scc(-c4cccs4)c3c(=O)[nH]2)o1 | inconclusive: 44.7 µM [inhibitor, partial curve] | –
28 | O=C(CN1CCCc2ccccc21)NC(=O)NCc1ccccc1 | inactive | –
29 | Oc1c(Cl)cc(Cl)cc1CNc1nc2ccccc2[nH]1 | inconclusive: 25.1 µM [inhibitor, single point] | –
30 | Cn1cc([C@@H]2C[C@H]3CN(Cc4cccc(Cl)c4)C(=O)[C@]34CCCN24)c2ccccc21 | inconclusive: 79.4 µM [inhibitor, single point] | –
31 | Cc1ccc(NC(=O)CN(C)C(=O)c2cc(-c3ccco3)nc3ccccc23)cc1 | active: 70.8 µM | –
32 | Cc1cc(=O)[nH]c(SCC(=O)Nc2nc(-c3ccccc3)cs2)n1 | inconclusive: 70.8 µM [inhibitor, single point] | –
33 | O=C(COC(=O)c1ccc(NS(=O)(=O)c2cccs2)cc1)NCc1ccco1 | active: 44.7 µM | –
34 | CC1(N2CCOCC2)CC2(O)C(=[N+]1[O-])CCc1c2no[n+]1[O-] (stereo unspecified) | inconclusive: 56.2 µM [inhibitor, partial curve] | –
35 | O=C(NCCOc1ccccc1)c1ccccc1Cl | inactive | –
36 | Cc1ccc(NC(=O)Cc2ccc(Cl)cc2)cc1S(=O)(=O)N1CCCCCC1 | inactive | –
37 | Nc1cc(-c2ccc(Br)cc2)nc2cc(-c3ccccc3)nn12 | inconclusive: 39.8 µM [inhibitor, single point] | –
38 | Oc1ccc(/C=N/N(Cc2ccccc2)c2ccccc2)c(O)c1O | inconclusive: 39.8 µM [inhibitor, partial curve] | –
39 | COc1ccc(O)c(/C=N/NC(=O)c2c(C)nnn2-c2nonc2N)c1 | inconclusive: 56.2 µM [inhibitor, partial curve] | –
40 | CC1=NN(c2ccc(F)cc2)C(=O)C1C(c1cccc(O)c1)c1c(C)[nH]n(-c2ccc(F)cc2)c1=O (stereo unspecified) | inconclusive: 23.8 µM [inhibitor, partial curve] | –
41 | Cc1ccc(S(=O)(=O)SCCCSS(=O)(=O)c2ccc(C)cc2)cc1 | active: 50.1 µM | –
42 | CC(C)COC(=O)c1ccc2c(c1O)C(=O)c1ccccc1C2=O | active: 18.9 µM | –
43 | Cc1ccccc1N(C(=O)c1csnn1)C(C(=O)NC(C)(C)C)c1cccs1 (stereo unspecified) | inconclusive: 89.1 µM [inhibitor, single point] | –
44 | CC1=NN(c2nc(-c3ccc(Cl)cc3)cs2)C(=O)C1 | inconclusive: 50.1 µM [inhibitor, partial curve] | –
45 | CC(=O)c1ccc(Sc2nnc(C)s2)c([N+](=O)[O-])c1 | inactive | –
46 | O=C(C[C@H]1C/C=C\CC[C@H](Cc2ccc(F)cc2)C(=O)O[C@H](c2ccccc2)CNC1=O)N[C@H](CO)Cc1ccccc1 | inactive | –
47 | Cc1ccc(C2=NC(C)(C)NC2=O)cc1 | inactive | –
48 | Clc1nssc1=Nc1ccc(Br)cc1 | active: 39.8 µM | –

Row | Compound | Potency | activity change, negative = inhibition
49 | O=C(Nc1ccccc1C(=O)Nc1nccs1)c1ccccc1 | inactive | –
50 | COCCNC(=O)CSc1nnc(NC(=O)C2CC(=O)N(c3ccccc3OC)C2)s1 (stereo unspecified) | inconclusive: 35.5 µM [inhibitor, full curve, poor fit] | –
51 | O=C(Nc1ccc(Br)cc1)c1cccc(S(=O)(=O)Nc2cnc3ccccc3c2)c1 | inconclusive: 79.4 µM [inhibitor, partial curve] | –
52 | COC(=O)Cc1csc(NC(=O)CSc2nnc3ccccn23)n1 | inactive | –
53 | Cc1ccc2c(Cl)c(C)c(N3CCOCC3)nc2n1 | inactive | –
54 | O=C(Nc1ccccc1Cl)/C(Cl)=C(\Cl)S(=O)c1ccccc1 (stereo unspecified) | active: 2.51 µM | –
55 | O=C(O)c1cccc(NS(=O)(=O)c2ccc(-c3ccc(S(=O)(=O)Nc4cccc(C(=O)O)c4)cc3)cc2)c1 | inactive | –
56 | CN(CC(=O)Nc1ccc(F)c(F)c1F)C(=O)CCc1nc2sc3c(c2c(=O)[nH]1)CCCC3 | inconclusive: 50.1 µM [inhibitor, partial curve] | –
57 | O=C(CCCCCn1c(SCc2ccncc2)nc2ccccc2c1=O)NCc1ccco1 | inconclusive: 56.2 µM [inhibitor, partial curve] | –
58 | Cc1cc(C)c2c(c1C)C(=O)CCC2 | inactive | –
59 | NS(=O)(=O)c1ccc(Nc2nc(-c3cccnc3)cs2)cc1 | inconclusive: 89.1 µM [inhibitor, single point] | –
60 | O=C(N/N=C/c1coc2ccc(Cl)cc2c1=O)c1cc(O)cc(O)c1 | inconclusive: 20 µM [inhibitor, single point] | –
61 | Cc1cccc(NC(=O)Cc2cccs2)n1 | inactive | –
62 | CCCn1nc([N+](=O)[O-])c(C(C#N)c2nc3ccccc3o2)c(Cl)c1=O (stereo unspecified) | inconclusive: 50.1 µM [inhibitor, partial curve] | –
63 | CCCCOC(=O)c1c(C)oc2ccc(NS(=O)(=O)c3ccc4c5c(cccc35)C(=O)N4)cc12 | inconclusive: 44.7 µM [inhibitor, partial curve] | –
64 | COc1ccc(NC(=O)CN(C)C(=O)Cc2ccc(S(=O)(=O)N3CCOCC3)s2)cc1 | inconclusive: 28.2 µM [inhibitor, full curve, poor fit] | –
65 | O=C(CSc1ccccc1)Nc1nnc(COc2ccc(Cl)cc2)s1 | inconclusive: 39.8 µM [inhibitor, partial curve] | –
66 | COc1cccc(NC(=O)c2nn(C)c(C(=O)Nc3cccc(OC)c3)c2[N+](=O)[O-])c1 | inconclusive: 79.4 µM [inhibitor, single point] | –
67 | COc1ccc(-n2nnnc2SCC(=O)c2ccc(O)c(O)c2)cc1 | active: 15.8 µM | –
68 | COc1ccc2cc(N3CCCC3=O)ccc2c1 | inactive | –
69 | O=C(O)CN1C(=O)/C(=C\c2cccc(OCc3ccc(Cl)cc3)c2)SC1=S | inconclusive: 50.1 µM [inhibitor, partial curve] | –
70 | Cc1ccc(/C=C/C(=O)Nc2nnc(SCc3ccc(C#N)cc3)s2)o1 | inconclusive: 56.2 µM [inhibitor, partial curve] | –
71 | COc1ccc(NC(=O)CSc2sc3c(O)cc(=O)[nH]c3c2C#N)c(OC)c1 | inconclusive: 10 µM [inhibitor, partial curve] | –

Four entries out of the list, arranged by SMILES length, rising:
Row | Compound | Potency | activity change, negative = inhibition
48 | Clc1nssc1=Nc1ccc(Br)cc1 | active: 39.8 µM | –
47 | Cc1ccc(C2=NC(C)(C)NC2=O)cc1 | inactive | –
39 | COc1ccc(O)c(/C=N/NC(=O)c2c(C)nnn2-c2nonc2N)c1 | inconclusive: 56.2 µM [inhibitor, partial curve] | –
16 | COC(=O)Cn1c(O)c(N=NC(=O)CNC(=O)COc2cccc(C)c2)c2ccccc21 | inactive | –
